# Results are given in words; binding and its absence hold for the method and conditions named. Some entries that bind do so weakly or less than the wild type.
# By UniProt entry, the sequences of proteins in these tests, tags left out.
# UniProt Q9C9W9: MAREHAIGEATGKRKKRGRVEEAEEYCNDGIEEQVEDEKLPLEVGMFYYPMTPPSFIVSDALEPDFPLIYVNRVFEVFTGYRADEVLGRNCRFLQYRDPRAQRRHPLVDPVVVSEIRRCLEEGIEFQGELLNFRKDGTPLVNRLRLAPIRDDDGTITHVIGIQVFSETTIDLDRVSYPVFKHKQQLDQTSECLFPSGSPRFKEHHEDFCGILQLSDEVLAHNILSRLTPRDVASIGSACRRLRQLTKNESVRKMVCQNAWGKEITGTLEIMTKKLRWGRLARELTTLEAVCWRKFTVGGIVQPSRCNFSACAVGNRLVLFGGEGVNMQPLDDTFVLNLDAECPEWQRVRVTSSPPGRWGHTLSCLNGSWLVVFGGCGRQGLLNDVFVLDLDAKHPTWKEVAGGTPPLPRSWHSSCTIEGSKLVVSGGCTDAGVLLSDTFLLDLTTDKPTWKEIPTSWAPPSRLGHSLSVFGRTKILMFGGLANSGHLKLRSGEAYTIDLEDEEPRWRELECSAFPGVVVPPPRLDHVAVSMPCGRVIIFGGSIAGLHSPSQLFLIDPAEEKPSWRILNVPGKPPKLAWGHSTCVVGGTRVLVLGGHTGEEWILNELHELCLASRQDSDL
# UniProt Q8W420: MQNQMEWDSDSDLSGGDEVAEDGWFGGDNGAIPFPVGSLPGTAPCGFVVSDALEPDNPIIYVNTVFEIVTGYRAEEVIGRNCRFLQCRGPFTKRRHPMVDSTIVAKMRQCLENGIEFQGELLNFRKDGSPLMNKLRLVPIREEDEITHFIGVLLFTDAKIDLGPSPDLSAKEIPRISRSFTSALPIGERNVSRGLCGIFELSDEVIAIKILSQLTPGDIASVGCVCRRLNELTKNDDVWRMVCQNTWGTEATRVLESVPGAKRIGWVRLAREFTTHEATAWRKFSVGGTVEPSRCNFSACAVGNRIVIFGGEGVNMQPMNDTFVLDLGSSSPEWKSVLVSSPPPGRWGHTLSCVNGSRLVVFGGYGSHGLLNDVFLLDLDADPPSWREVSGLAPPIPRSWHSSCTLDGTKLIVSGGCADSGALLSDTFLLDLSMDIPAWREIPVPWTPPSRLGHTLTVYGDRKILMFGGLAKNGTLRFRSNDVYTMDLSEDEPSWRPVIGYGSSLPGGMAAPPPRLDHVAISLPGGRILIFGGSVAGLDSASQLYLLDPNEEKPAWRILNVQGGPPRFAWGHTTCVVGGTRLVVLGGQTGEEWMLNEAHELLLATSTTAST
# UniProt Q94BT6: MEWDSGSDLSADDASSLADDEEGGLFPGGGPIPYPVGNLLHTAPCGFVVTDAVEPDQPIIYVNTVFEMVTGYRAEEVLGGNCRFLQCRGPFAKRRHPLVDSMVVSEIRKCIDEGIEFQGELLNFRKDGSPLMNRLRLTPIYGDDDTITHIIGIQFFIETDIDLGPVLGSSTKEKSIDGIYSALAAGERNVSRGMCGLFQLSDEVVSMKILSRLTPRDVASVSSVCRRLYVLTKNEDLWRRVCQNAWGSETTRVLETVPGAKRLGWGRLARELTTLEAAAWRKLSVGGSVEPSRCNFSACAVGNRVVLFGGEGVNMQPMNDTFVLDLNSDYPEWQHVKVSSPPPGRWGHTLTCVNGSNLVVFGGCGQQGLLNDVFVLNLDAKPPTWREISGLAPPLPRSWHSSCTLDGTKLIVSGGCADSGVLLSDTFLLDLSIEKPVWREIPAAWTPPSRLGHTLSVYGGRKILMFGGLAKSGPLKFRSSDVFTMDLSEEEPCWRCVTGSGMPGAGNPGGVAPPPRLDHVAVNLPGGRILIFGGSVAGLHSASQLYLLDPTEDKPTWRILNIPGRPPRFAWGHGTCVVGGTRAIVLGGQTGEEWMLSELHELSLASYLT
# T1: CDF6, full length, yeast two-hybrid bait (Arabidopsis thaliana) (UniProt Q9LQX4)
# T1 sequence: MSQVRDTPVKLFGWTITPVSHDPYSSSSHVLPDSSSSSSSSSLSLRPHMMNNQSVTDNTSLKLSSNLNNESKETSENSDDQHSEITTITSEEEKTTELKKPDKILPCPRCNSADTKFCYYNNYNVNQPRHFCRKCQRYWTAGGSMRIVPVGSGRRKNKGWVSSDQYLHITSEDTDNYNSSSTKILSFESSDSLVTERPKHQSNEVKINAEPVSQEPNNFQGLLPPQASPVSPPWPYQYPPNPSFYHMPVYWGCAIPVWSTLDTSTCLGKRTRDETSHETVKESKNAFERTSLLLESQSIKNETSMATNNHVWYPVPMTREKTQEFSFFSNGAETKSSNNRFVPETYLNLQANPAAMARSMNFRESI
# B1: GI‐FL, yeast two-hybrid prey (protein, UniProt Q9SQI2 1-1173)
# chain: MASSSSSERWIDGLQFSSLLWPPPRDPQQHKDQVVAYVEYFGQFTSEQFPDDIAELVRHQYPSTEKRLLDDVLAMFVLHHPEHGHAVILPIISCLIDGSLVYSKEAHPFASFISLVCPSSENDYSEQWALACGEILRILTHYNRPIYKTEQQNGDTERNCLSKATTSGSPTSEPKAGSPTQHERKPLRPLSPWISDILLAAPLGIRSDYFRWCSGVMGKYAAGELKPPTIASRGSGKHPQLMPSTPRWAVANGAGVILSVCDDEVARYETATLTAVAVPALLLPPPTTSLDEHLVAGLPALEPYARLFHRYYAIATPSATQRLLLGLLEAPPSWAPDALDAAVQLVELLRAAEDYASGVRLPRNWMHLHFLRAIGIAMSMRAGVAADAAAALLFRILSQPALLFPPLSQVEGVEIQHAPIGGYSSNYRKQIEVPAAEATIEATAQGIASMLCAHGPEVEWRICTIWEAAYGLIPLNSSAVDLPEIIVATPLQPPILSWNLYIPLLKVLEYLPRGSPSEACLMKIFVATVETILSRTFPPESSRELTRKARSSFTTRSATKNLAMSELRAMVHALFLESCAGVELASRLLFVVLTVCVSHEAQSSGSKRPRSEYASTTENIEANQPVSNNQTANRKSRNVKGQGPVAAFDSYVLAAVCALACEVQLYPMISGGGNFSNSAVAGTITKPVKINGSSKEYGAGIDSAISHTRRILAILEALFSLKPSSVGTPWSYSSSEIVAAAMVAAHISELFRRSKALTHALSGLMRCKWDKEIHKRASSLYNLIDVHSKVVASIVDKAEPLEAYLKNTPVQKDSVTCLNWKQENTCASTTCFDTAVTSASRTEMNPRGNHKYARHSDEGSGRPSEKGIKDFLLDASDLANFLTADRLAGFYCGTQKLLRSVLAEKPELSFSVVSLLWHKLIAAPEIQPTAESTSAQQGWRQVVDALCNVVSATPAKAAAAVVLQAERELQPWIAKDDEEGQKMWKINQRIVKVLVELMRNHDRPESLVILASASDLLLRATDGMLVDGEACTLPQLELLEATARAIQPVLAWGPSGLAVVDGLSNLLKCRLPATIRCLSHPSAHVRALSTSVLRDIMNQSSIPIKVTPKLPTTEKNGMNSPSYRFFNAASIDWKADIQNCLNWEAHSLLSTTMPTQFLDTAARELGCTISLSQ
# Target: T1, CDF6, full length, yeast two-hybrid bait (Arabidopsis thaliana)
# Assay: two-hybrid; yeast two-hybrid: CDF6 as bait (pAS-GW, strain AH109), preys in strain Y187, mated; growth on -WL and -WLH media
row,binding,Molecule
1,binds,"FKF1, yeast two-hybrid prey (from UniProt Q9C9W9 1-619)"
2,binds,"LKP2, yeast two-hybrid prey (from UniProt Q8W420 1-611)"
3,binds,"ZTL, yeast two-hybrid prey (from UniProt Q94BT6 1-609)"
4,binds,B1
